Measured values reported in patent US20060069163A1, “Method for treating Alzheimer's disease” (Pfizer Inc, priority 2000, published 2006).
“Also recorded” adds a separate entry of the source. At least one structure is not confirmed: it was looked up by name or label, or the drawing left a doubt.

System: β-amyloid peptide (Aβ) synthesized by β APP-CHO cells
Test: Aβ production in βAPP-CHO cells, sandwich ELISA
Type: cell-based, Chinese hamster
Details: CHO cells overexpressing human βAPP, test compounds added at various dose concentrations to the medium, FIG. 5 and FIG. 6
Text: This experiment was designed to determine the ability of lipid regulating agents to alter the production of β-amyloid peptide (Aβ) in cultured cells, and their consequent activity in preventing and treating Alzheimer's Disease.
Chinese hamster ovary (CHO) cells were stably transfected with a construct to enable the overexpression of the human β-amyloid precursor protein (βAPP) gene to cause increased production of Aβ. The measurement of Aβ synthesized by these β APP-CHO cells was done using a standard sandwich ELISA assay, employing well-characterized antibodies to the N-terminus (6E10) and middle (4G8) of Aβ. This assay is routinely used to measure Aβ in tissues, body fluids, and cell culture media. Cultures of β APP-CHO cells were grown to near confluency, and then the test compounds were added at various dose concentrations to the cell medium.

| SMILES | reduction in Aβ | reduction in Aβ (listed as Pravastatin) |
| --- | --- | --- |
| CC[C@H](C)C(=O)O[C@H]1C[C@H](O)C=C2C=C[C@H](C)[C@H](CC[C@@H](O)C[C@@H](O)CC(=O)O)[C@H]21 [pravastatin] | dose-dependent inhibition | somewhat less pronounced |
| CCC(C)(C)C(=O)O[C@H]1C[C@@H](C)C=C2C=C[C@H](C)[C@H](CC[C@@H]3C[C@@H](O)CC(=O)O3)[C@H]21 [simvastatin] | dose-dependent inhibition; also recorded: dramatic dose-dependent reduction |  |
